Data as given in PubChem BioAssay AID743121 (NCATS, 2013)
Assay: 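Knock-downs that sensitise breast cancer cells to camptothecin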 (primary screen). System: MDA-MB-231 cells, a human breast cancer line. Knock-down reagent: single siRNA against human genes, 20 nM siRNA (0.8 pmol per well). Time to read-out: 120 h (drug added 48 h after transfection, read 72 h later). Challenge: camptothecin 20 nM (about EC30) for 72 h; vehicle 0.1% DMSO in parallel plates. Read-out: 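Cell viability by ATP luminescence (CellTiter-Glo) as % of non-targeting siRNA wells, and the log2 ratio of viability without drug over viability with camptothecin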. Reading the numbers: log2 vehicle/camptothecin viability: higher = stronger sensitisation to camptothecin. Rule for the call: 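Active genes have an RSA gene-level p-value below 0.001, computed from the ratios of their separate siRNAs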.
The whole screen tested about 26,000 reagents; this is a part drawn at random. 167 of them (0.63%) count as active. 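Calls are per gene from RSA p-values that are not deposited; an individual active-marked siRNA can sensitise only weakly.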 A number with no mark means an inactive call. The numbers tell different reagents against one gene apart. Further read-outs or replicates are left out here. No sequences are given here.

After knock-down of KLKB1 (kallikrein B1) #1, the screen gave log2 vehicle/camptothecin viability -0.369.
For KLKB1 (kallikrein B1) #2, the values are log2 vehicle/camptothecin viability -0.121.
Knock-down of KLKB1 (kallikrein B1) #3 came out at: log2 vehicle/camptothecin viability -0.398.
Depletion of KLKB1 (kallikrein B1) #4 gave: log2 vehicle/camptothecin viability -0.305.
Knock-down of GPR149 (G protein-coupled receptor 149) #1 resulted in: log2 vehicle/camptothecin viability 0.152.
Silencing of GPR149 (G protein-coupled receptor 149) #2 resulted in: log2 vehicle/camptothecin viability 0.00464.
Knock-down of GPR149 (G protein-coupled receptor 149) #3 gave: log2 vehicle/camptothecin viability -0.342.
GPR149 (G protein-coupled receptor 149) #4 scored log2 vehicle/camptothecin viability -0.00373.
Against ISYNA1 (inositol-3-phosphate synthase 1) #1, the entry reads log2 vehicle/camptothecin viability -0.378.
With knock-down of ISYNA1 (inositol-3-phosphate synthase 1) #2 the results were log2 vehicle/camptothecin viability 0.408.
After knock-down of ISYNA1 (inositol-3-phosphate synthase 1) #3, the screen gave log2 vehicle/camptothecin viability -0.194.
Against ISYNA1 (inositol-3-phosphate synthase 1) #4 the deposit lists log2 vehicle/camptothecin viability -0.272.
Silencing of LANCL1 (LanC like glutathione S-transferase 1) #1 resulted in: log2 vehicle/camptothecin viability -0.449.
LANCL1 (LanC like glutathione S-transferase 1) #2 gave log2 vehicle/camptothecin viability 0.285.
Against LANCL1 (LanC like glutathione S-transferase 1) #3, the entry reads log2 vehicle/camptothecin viability -0.233.
LANCL1 (LanC like glutathione S-transferase 1) #4 showed log2 vehicle/camptothecin viability -0.473.

3 successive records from above:
LANCL1 (LanC like glutathione S-transferase 1) #1: log2 vehicle/camptothecin viability = -0.449
LANCL1 (LanC like glutathione S-transferase 1) #2: log2 vehicle/camptothecin viability = 0.285
LANCL1 (LanC like glutathione S-transferase 1) #3: log2 vehicle/camptothecin viability = -0.233
